Laboratory results as given in publication PMC6534332.
Results are given in words; binding and its absence hold for the method and conditions named. In cells and extracts the contact can be indirect. Some entries that bind do so weakly or less than the wild type.

By UniProt entry, the sequences of proteins in these tests, tags left out.
UniProt P26358: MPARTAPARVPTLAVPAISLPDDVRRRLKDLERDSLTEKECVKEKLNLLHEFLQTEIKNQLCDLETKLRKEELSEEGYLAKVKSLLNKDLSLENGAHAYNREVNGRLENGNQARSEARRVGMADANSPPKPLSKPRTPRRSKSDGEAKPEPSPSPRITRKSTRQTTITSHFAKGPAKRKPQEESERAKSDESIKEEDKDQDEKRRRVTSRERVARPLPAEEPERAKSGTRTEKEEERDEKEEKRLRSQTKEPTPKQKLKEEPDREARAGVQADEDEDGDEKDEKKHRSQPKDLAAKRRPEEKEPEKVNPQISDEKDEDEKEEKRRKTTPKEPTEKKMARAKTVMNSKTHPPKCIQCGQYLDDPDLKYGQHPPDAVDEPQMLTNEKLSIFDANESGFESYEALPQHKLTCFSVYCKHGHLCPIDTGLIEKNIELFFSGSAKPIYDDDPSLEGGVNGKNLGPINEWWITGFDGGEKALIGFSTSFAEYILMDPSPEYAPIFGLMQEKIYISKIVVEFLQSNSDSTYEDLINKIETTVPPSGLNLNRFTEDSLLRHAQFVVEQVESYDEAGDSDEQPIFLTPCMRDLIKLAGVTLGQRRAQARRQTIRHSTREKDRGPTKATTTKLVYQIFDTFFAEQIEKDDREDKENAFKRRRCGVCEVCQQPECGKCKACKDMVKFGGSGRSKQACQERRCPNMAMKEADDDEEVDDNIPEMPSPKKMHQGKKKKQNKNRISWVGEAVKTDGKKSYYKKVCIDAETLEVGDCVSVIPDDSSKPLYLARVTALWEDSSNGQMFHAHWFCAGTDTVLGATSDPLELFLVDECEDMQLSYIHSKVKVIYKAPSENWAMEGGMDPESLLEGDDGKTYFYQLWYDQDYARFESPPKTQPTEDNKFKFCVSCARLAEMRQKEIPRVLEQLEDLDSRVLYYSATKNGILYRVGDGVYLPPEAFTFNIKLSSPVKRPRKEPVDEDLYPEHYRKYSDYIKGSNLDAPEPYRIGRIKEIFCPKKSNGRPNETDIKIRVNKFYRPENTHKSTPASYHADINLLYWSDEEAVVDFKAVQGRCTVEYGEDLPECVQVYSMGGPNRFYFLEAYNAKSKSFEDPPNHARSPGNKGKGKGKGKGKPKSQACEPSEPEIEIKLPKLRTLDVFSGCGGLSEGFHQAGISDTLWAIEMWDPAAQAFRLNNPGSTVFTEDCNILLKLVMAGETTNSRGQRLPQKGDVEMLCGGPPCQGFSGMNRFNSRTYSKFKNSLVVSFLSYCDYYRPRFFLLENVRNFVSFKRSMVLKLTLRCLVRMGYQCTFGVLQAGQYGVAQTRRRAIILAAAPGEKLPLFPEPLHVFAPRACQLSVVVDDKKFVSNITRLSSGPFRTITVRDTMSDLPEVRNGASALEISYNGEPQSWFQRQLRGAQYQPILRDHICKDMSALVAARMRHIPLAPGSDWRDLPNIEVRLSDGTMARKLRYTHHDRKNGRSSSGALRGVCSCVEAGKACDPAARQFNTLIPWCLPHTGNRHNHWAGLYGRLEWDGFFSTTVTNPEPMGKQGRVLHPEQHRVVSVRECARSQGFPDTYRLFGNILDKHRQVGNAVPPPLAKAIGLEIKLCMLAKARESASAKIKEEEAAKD
UniProt Q96KQ7: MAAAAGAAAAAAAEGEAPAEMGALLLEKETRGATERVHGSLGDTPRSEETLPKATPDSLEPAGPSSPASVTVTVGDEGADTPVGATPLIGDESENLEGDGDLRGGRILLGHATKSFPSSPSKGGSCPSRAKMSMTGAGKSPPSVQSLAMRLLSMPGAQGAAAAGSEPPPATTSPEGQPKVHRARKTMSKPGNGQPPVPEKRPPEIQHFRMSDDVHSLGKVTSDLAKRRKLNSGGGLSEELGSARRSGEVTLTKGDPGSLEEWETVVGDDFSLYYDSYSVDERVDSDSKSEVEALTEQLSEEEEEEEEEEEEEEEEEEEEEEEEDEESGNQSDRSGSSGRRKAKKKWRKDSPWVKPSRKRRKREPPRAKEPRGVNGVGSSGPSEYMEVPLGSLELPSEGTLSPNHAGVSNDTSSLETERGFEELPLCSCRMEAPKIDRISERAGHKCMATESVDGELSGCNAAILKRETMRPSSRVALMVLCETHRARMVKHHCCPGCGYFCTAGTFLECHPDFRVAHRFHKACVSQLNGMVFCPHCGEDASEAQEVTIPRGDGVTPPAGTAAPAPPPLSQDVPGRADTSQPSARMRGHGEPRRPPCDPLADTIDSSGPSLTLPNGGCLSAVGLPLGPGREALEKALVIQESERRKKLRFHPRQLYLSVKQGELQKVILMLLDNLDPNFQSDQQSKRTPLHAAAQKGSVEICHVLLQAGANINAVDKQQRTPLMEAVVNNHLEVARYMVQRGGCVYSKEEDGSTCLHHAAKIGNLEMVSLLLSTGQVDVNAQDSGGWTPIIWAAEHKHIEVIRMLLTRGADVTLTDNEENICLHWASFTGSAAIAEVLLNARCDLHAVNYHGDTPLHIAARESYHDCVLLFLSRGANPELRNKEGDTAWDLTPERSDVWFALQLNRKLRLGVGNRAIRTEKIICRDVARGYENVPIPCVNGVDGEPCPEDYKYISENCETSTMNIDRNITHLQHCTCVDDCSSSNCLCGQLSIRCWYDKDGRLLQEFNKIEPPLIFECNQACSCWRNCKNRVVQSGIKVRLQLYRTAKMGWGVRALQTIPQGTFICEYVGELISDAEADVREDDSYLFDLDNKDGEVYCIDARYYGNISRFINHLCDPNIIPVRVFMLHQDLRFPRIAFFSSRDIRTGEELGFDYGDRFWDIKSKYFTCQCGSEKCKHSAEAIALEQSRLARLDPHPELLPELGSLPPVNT

Target: DNA methyltransferase-1 (DNMT1) (human (endogenous in human breast cancer cells)) (UniProt P26358)
Assay: co-IP; DNMT1 IP (mouse anti-DNMT1 Ab, control normal mouse IgG) from cell lysate, overnight at 4°C, protein A agarose beads, washes in 50 mM Tris-HCl pH 7.5, 150 mM NaCl, 1 mM MgCl2, 0.5% NP-40; immunoblotting; with or without DNase I or RNase A treatment

For “G9a, histone H3K9 methyltransferase (from UniProt Q96KQ7 1-1210) (enzyme)”, the binding was “binds”.
